PubChem BioAssay AID1259308 – NCATS | 2017
Assay: 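Genes whose loss raises luciferase production in HEK293 cells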 (primary screen). Cells: human HEK293 embryonic kidney cells stably expressing firefly luciferase (HEK-CMV-Luc2-Hygro). Knock-down reagent: single siRNA against human genes, 0.8 pmol siRNA per well. Duration: 72 h. Read-out: 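Luciferase light (ONE-Glo) measured on one replicate plate set and viability (CellTiter-Glo) on the other, scaled to a negative control siRNA, with robust z-scores and luciferase per cell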. Direction: total luciferase, z-score and total luciferase, % of control: higher = more reporter protein produced; luciferase per cell, z-score: higher = more reporter output per viable cell; viable cells, % of control: higher = more viable cells. Call rule: 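An siRNA counts as active if its total luciferase robust z-score exceeds 3; genes with two or more such siRNAs out of three were retested with fresh siRNAs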. Meaning of the calls: active = raised luciferase; inactive = no rise.
Here is one part, drawn at random, of about 59,000 reagents tested. Of all reagents, about 1,510 (2.6%) got an active call. 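Calls use total luciferase alone and ignore viability, so some active siRNAs may act by altering cell number.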 Unmarked entries are inactive. The numbers tell different reagents against one gene apart. Reagent sequences are not shown.

target | reagent no. | total luciferase, z-score | total luciferase, % of control | luciferase per cell, z-score | viable cells, % of control
MAPT (microtubule associated protein tau) | 1 | 2.15 | 125 | 2.47 | 72.7
MAPT (microtubule associated protein tau) | 2 | -0.493 | 72.1 | 0.124 | 77.9
MAPT (microtubule associated protein tau) | 3 | -0.387 | 74.2 | 0.127 | 80.2
TAL1 | 1 | 1.42 | 110 | 1.68 | 79.1
TAL1 | 2 | 0.852 | 98.8 | 1.27 | 79.1
TAL1 | 3 | -0.304 | 75.8 | -0.793 | 104
TEKT4 (tektin 4) | 1 | 1.6 | 114 | 0.965 | 98.6
TEKT4 (tektin 4) | 2 | 0.193 | 85.7 | -0.172 | 100
TEKT4 (tektin 4) | 3 | 1.43 | 110 | 0.324 | 113
PSMA8 (proteasome 20S subunit alpha 8) | 1 | 0.055 | 83 | 0.277 | 86.2
PSMA8 (proteasome 20S subunit alpha 8) | 2 | -1.18 | 58.4 | -0.994 | 84.8
PSMA8 (proteasome 20S subunit alpha 8) | 3 | -0.591 | 70.1 | -1.49 | 116
DECR1 (2,4-dienoyl-CoA reductase 1) | 1 | -0.399 | 74 | -1.05 | 109
DECR1 (2,4-dienoyl-CoA reductase 1) | 2 | 0.0347 | 82.6 | -0.772 | 113
DECR1 (2,4-dienoyl-CoA reductase 1) | 3 | 0.2 | 85.9 | 0.605 | 81.8
SKIC3 (SKI3 subunit of superkiller complex) | 1 | -0.668 | 68.6 | -0.434 | 85.9
SKIC3 (SKI3 subunit of superkiller complex) | 2 | -0.0322 | 81.2 | 0.653 | 76.4
SKIC3 (SKI3 subunit of superkiller complex) | 3 | -0.788 | 66.2 | -0.788 | 91.1
LINC00381 (long intergenic non-protein coding RNA 381) | 1 | -0.192 | 78.1 | -0.353 | 95.7
LINC00381 (long intergenic non-protein coding RNA 381) | 2 | -1.64 | 49.4 | -2.11 | 96.1
LINC00381 (long intergenic non-protein coding RNA 381) | 3 | -1.57 | 50.6 | 0.0197 | 56.2
SLC41A3 | 1 | 1.06 | 103 | 1.18 | 84.4
SLC41A3 | 2 | 1.81 | 118 | 0.871 | 105
SLC41A3 | 3 | -0.186 | 78.2 | 0.333 | 80
PIK3CG | 1 | 1.19 | 105 | 2.32 | 64
PIK3CG | 2 | -0.576 | 70.4 | -0.335 | 86
PIK3CG | 3 | 0.146 | 84.8 | -0.315 | 103
SLC41A2 | 1 | -1.16 | 58.7 | -1.43 | 95.6
SLC41A2 | 2 | 0.458 | 91 | 0.957 | 79
SLC41A2 | 3 | 0.698 | 95.8 | 0.684 | 89.4
OSBPL1A (oxysterol binding protein like 1A) | 1 | -0.529 | 71.4 | -0.492 | 90.8
OSBPL1A (oxysterol binding protein like 1A) | 2 | -0.196 | 78 | -0.688 | 104
OSBPL1A (oxysterol binding protein like 1A) | 3 | -0.63 | 69.3 | -0.433 | 86.9
TFDP3 (transcription factor Dp family member 3) | 1 | 0.995 | 102 | 0.986 | 87.6
TFDP3 (transcription factor Dp family member 3) | 2 | 0.638 | 94.6 | -0.191 | 111
TFDP3 (transcription factor Dp family member 3) | 3 | 0.604 | 93.9 | 0.922 | 82.3
CNN1 (calponin 1) | 1 | 0.355 | 89 | 0.46 | 88.1
CNN1 (calponin 1) | 2 | -2.14 | 39.2 | -0.3 | 47.4
CNN1 (calponin 1) | 3 | 2.74 | 136 | 2.14 | 86.8
